In patent US20240294670A1:
No constants are given. Whether binding was seen depends on the method and setting. For part of these data: In cells and extracts the contact can be indirect. Some binding calls cover weakened binding; strength is not graded here.

By UniProt entry, the sequences of proteins in these tests, tags left out. Where a name states a change or a piece, a line headed by the entry shows the natural chain unless it says otherwise. Residues count along the entry.
UniProt A0A0A0MQF6: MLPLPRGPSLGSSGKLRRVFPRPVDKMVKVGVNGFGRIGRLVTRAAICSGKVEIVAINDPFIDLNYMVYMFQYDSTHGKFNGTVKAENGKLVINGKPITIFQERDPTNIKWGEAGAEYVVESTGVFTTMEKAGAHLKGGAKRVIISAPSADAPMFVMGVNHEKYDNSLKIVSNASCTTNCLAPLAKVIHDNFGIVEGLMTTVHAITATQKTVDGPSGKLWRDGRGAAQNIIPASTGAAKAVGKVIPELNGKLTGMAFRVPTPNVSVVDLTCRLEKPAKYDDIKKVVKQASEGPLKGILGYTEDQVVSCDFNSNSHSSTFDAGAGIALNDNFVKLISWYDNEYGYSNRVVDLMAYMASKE
UniProt P16070, residues 21-220: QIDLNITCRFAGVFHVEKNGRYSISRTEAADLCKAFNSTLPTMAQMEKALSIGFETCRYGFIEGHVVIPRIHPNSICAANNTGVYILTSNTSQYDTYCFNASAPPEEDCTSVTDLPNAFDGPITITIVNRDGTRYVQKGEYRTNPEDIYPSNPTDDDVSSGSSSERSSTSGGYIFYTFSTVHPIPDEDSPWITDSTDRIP
UniProt Q61362, residues 30-389: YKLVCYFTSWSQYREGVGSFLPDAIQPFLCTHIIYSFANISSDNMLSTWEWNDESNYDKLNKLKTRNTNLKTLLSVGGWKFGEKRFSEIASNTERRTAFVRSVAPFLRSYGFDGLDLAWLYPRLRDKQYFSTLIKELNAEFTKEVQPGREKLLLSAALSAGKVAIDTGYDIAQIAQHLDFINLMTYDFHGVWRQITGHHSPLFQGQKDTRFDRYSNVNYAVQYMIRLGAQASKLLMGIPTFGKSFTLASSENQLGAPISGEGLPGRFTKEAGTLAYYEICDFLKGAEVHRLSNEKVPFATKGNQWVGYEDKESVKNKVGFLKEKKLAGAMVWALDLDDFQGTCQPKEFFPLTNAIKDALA
UniProt P36222, residues 22-383: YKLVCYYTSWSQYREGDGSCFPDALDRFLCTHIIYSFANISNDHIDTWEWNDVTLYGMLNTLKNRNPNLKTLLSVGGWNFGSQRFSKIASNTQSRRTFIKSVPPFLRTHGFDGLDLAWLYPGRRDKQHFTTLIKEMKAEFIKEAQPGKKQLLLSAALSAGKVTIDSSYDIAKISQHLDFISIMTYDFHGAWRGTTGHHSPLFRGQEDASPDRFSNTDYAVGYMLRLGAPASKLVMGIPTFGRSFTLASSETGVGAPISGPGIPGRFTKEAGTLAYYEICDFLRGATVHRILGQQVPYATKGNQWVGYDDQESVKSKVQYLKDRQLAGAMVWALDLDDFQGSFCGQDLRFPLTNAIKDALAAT

Columns and labels:
[1] = target: UniProt A0A0A0MQF6_MOUSE (mouse); assay: anti-His co-IP of rCHI3L1 from Kupffer cell lysate, MS; listed under 'proteins bound to CHI3L1'
[2] = target: T1, UniProt Q3TQD9_MOUSE (mouse); assay: as above
T1 sequence: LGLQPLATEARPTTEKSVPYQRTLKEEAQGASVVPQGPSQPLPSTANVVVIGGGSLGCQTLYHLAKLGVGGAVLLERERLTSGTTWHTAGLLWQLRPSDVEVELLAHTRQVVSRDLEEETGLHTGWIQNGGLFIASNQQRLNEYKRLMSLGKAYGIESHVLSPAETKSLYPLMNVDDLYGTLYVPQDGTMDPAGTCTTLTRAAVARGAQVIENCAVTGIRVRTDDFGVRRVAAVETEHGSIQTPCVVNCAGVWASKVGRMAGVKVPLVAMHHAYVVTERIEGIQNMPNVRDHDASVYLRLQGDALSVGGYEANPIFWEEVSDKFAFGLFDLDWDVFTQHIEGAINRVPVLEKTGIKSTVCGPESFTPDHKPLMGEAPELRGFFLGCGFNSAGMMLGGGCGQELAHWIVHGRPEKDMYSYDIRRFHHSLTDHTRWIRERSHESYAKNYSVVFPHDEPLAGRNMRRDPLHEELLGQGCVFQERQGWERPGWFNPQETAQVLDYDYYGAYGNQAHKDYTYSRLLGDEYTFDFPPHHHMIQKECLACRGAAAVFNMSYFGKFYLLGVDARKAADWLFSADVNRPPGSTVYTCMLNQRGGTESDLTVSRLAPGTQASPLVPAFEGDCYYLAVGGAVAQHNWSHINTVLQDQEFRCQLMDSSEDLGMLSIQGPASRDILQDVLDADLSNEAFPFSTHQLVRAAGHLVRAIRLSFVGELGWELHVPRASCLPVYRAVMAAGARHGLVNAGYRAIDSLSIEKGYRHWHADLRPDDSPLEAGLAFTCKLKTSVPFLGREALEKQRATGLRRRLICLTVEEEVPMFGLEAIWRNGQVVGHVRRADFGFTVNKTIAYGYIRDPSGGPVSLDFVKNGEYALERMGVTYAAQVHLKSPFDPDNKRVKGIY

mouse CD44 (mouse) [3] = target: T2, mouse CD44 (mouse) (UniProt P15379); assay: as above
T2 sequence (looked up): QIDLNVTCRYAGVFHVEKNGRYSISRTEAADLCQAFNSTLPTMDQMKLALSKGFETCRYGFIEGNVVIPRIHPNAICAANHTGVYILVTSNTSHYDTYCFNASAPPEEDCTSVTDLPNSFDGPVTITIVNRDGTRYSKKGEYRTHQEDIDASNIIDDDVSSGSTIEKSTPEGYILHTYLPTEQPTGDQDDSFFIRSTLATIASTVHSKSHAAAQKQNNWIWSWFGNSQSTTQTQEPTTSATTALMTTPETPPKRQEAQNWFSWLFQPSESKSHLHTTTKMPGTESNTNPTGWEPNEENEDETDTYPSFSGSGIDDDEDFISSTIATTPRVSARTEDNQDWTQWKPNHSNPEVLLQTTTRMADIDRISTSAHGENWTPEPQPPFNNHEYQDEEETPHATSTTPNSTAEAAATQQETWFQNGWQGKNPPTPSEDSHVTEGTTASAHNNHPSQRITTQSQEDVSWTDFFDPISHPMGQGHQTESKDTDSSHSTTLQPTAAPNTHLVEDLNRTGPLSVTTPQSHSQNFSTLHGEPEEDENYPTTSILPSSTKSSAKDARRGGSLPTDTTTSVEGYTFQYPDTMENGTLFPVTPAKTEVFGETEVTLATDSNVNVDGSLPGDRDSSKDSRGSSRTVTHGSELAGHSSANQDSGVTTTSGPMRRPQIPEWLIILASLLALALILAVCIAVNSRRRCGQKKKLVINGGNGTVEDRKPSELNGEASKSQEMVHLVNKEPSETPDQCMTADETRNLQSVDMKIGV

mouse CD44 (mouse) [4] = target: T2, mouse CD44 (mouse); assay: co-immunoprecipitation with anti-CD44 antibody from mouse liver homogenates incubated with rCHI3L1, western blot
mouse CD44 (mouse) [5] = target: T2, mouse CD44 (mouse); assay: mouse liver non-parenchymal cells incubated with His-tagged rCHI3L1, binding to cells (FIG. 3D); bound only to Kupffer cells, which carry CD44
human CD44-Fc (human) = human CD44-Fc (human) (UniProt P16070); assay: in vitro co-immunoprecipitation of rhCHI3L1 and human CD44, western blot

Measured: binding

recombinant mouse CHI3L1 (from UniProt Q61362 30-389) (ligand)
not listed: human CD44-Fc (human)
binds: all other assays above

recombinant human CHI3L1 (from UniProt P36222 22-383) (ligand)
binds: human CD44-Fc (human)
